In the supplement of paper PMC10849652 one finds log2 fold change data, which are given here for 25 targets.

By UniProt entry, the sequences of proteins in these tests, tags left out. Where a name states a change or a piece, a line headed by the entry shows the natural chain unless it says otherwise.
UniProt Q9GZV4: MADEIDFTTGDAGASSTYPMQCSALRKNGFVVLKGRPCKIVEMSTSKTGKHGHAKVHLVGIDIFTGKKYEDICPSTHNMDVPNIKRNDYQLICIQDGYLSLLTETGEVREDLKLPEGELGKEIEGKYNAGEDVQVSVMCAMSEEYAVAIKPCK
UniProt Q04637, whole entry, looked up: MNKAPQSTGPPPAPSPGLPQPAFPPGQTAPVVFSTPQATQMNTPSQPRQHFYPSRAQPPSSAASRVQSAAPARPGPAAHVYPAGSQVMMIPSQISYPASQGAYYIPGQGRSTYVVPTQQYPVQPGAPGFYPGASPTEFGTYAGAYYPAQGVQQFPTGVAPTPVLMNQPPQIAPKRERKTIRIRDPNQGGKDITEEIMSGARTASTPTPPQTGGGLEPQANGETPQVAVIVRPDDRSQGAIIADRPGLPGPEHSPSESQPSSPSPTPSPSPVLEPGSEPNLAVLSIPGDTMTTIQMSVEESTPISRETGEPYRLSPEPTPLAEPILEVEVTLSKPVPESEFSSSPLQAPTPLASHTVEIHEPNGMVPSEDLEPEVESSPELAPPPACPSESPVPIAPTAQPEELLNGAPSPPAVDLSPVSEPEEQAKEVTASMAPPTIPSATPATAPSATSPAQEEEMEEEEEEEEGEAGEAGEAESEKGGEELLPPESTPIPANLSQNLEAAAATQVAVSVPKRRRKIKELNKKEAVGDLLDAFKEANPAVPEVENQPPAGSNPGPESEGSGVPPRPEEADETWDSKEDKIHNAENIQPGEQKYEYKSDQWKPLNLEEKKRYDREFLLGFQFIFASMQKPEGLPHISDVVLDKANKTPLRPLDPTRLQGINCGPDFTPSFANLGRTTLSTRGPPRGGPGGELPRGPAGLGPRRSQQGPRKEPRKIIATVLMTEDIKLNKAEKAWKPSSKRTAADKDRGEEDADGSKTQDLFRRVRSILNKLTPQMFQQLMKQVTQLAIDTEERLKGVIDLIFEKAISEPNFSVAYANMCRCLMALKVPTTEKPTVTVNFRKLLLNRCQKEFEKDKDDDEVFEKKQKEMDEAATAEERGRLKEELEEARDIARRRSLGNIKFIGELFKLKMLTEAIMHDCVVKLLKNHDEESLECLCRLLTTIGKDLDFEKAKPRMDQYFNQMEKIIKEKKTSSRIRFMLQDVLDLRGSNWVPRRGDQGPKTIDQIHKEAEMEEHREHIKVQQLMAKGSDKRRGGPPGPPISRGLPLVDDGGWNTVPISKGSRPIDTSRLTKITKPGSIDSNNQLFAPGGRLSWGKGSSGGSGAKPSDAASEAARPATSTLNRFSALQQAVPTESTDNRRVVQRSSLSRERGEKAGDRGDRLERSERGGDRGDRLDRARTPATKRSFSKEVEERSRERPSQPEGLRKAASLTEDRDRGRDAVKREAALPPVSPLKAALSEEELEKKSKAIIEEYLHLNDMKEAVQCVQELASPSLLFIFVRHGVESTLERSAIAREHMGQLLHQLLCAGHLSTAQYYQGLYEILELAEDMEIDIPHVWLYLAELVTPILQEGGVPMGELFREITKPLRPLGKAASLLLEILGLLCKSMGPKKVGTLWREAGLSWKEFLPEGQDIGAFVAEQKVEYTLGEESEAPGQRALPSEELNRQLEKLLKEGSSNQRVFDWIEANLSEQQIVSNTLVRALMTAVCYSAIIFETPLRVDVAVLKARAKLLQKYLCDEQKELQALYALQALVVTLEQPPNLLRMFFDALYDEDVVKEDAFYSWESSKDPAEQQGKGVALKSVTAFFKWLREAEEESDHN
UniProt Q6ZTU2, whole entry, looked up: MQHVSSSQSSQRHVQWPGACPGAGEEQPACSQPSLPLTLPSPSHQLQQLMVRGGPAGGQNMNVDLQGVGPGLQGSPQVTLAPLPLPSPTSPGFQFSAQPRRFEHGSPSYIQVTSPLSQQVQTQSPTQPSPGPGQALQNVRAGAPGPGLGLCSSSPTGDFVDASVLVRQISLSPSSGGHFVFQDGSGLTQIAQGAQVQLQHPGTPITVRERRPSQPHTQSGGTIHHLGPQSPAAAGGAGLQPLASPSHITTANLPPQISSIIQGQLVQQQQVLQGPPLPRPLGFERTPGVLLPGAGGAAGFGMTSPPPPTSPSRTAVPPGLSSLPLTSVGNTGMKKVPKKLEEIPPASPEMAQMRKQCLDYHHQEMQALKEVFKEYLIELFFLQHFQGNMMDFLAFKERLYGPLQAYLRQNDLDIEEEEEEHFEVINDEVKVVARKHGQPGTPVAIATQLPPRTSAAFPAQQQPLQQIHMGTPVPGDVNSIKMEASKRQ
UniProt Q96JJ3: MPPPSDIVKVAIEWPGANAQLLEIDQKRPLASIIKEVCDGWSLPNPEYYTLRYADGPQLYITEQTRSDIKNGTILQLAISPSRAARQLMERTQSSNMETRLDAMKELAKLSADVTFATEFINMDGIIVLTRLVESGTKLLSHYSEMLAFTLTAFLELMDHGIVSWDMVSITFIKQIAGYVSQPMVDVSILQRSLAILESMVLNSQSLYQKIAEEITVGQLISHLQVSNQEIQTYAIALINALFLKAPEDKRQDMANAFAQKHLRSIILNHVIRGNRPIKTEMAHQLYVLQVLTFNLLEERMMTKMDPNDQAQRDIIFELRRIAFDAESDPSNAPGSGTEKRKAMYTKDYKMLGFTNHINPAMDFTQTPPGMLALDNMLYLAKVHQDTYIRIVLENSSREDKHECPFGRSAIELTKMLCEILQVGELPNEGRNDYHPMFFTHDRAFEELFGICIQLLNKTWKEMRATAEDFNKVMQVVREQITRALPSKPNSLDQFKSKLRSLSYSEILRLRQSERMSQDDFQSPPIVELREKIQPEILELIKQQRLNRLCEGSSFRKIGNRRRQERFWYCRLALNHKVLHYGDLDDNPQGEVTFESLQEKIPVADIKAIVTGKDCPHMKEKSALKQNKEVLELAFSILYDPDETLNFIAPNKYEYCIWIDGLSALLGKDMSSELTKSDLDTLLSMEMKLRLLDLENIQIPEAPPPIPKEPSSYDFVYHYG
UniProt Q9H0I2: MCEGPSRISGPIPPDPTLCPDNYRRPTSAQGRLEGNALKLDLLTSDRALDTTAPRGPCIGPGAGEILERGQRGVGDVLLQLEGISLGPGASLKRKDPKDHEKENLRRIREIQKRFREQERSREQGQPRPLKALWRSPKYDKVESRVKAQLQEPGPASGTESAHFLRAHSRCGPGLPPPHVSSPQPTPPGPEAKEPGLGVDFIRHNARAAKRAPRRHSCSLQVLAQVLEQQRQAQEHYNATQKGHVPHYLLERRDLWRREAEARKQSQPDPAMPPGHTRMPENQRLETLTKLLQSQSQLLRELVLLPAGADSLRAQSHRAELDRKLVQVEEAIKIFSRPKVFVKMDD
UniProt Q8N8S7: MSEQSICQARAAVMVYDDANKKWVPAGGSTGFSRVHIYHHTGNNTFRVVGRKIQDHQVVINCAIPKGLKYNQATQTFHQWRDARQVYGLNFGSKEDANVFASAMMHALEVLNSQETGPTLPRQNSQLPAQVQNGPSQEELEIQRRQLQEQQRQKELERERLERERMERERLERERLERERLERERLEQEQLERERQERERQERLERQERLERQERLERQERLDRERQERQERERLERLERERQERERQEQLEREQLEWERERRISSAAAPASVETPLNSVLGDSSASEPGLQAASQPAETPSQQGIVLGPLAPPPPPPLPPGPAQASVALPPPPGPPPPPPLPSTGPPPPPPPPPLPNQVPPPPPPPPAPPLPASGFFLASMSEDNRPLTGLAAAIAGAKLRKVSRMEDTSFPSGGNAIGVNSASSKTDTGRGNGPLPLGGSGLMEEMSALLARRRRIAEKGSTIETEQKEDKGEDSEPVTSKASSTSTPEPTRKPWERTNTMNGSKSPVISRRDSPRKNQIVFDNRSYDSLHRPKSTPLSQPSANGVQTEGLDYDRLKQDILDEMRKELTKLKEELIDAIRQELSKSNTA
UniProt P26378: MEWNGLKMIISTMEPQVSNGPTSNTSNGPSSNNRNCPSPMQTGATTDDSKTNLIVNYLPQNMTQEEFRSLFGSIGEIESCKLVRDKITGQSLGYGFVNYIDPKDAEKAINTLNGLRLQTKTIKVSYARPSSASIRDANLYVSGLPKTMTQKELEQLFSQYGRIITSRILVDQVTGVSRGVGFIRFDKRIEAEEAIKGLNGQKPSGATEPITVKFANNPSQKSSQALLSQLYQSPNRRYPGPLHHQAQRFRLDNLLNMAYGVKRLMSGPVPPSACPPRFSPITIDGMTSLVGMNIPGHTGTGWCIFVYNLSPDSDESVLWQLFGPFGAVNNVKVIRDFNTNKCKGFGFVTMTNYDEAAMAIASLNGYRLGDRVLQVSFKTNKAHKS
UniProt Q14241: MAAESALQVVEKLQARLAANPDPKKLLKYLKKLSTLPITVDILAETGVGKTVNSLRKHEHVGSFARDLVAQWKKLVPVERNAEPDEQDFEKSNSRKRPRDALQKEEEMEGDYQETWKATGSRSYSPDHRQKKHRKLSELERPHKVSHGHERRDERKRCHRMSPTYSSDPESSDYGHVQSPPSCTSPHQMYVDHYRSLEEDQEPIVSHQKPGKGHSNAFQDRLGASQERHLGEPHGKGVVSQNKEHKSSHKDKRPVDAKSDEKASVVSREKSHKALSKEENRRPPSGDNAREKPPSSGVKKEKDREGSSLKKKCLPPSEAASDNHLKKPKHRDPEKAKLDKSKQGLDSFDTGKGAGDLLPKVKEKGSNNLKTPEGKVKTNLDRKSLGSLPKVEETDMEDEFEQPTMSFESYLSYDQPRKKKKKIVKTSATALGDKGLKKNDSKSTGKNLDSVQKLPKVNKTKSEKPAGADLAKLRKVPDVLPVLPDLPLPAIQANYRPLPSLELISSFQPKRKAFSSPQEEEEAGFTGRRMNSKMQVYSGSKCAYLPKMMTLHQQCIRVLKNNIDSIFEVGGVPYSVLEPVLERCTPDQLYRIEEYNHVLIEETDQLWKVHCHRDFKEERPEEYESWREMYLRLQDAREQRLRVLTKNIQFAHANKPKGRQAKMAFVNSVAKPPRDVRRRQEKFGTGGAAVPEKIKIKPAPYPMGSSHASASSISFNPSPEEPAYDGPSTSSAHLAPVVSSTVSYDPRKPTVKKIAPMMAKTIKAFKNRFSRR
UniProt P11171, whole entry, looked up: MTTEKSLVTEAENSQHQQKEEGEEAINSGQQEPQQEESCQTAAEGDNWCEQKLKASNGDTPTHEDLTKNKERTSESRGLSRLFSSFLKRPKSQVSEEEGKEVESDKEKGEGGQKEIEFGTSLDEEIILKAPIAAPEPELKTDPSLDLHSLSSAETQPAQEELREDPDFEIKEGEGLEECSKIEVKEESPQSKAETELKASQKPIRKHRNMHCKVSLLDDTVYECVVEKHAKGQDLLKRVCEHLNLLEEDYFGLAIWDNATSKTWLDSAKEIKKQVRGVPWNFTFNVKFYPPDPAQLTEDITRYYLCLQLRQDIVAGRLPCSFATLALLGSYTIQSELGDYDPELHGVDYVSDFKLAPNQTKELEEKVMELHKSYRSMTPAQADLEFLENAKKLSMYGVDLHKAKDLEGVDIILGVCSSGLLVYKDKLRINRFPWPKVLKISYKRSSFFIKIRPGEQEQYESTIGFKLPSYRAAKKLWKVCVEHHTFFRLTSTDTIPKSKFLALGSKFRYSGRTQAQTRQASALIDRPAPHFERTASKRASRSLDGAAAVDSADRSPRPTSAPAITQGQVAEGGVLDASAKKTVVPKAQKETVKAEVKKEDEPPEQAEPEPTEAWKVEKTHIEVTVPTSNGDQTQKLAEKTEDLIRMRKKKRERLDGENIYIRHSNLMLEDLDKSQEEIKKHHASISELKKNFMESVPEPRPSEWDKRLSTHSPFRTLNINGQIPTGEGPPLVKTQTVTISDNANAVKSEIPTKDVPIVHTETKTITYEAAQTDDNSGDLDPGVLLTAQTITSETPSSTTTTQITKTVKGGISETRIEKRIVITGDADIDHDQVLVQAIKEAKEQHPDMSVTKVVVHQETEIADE
UniProt Q5VUJ9: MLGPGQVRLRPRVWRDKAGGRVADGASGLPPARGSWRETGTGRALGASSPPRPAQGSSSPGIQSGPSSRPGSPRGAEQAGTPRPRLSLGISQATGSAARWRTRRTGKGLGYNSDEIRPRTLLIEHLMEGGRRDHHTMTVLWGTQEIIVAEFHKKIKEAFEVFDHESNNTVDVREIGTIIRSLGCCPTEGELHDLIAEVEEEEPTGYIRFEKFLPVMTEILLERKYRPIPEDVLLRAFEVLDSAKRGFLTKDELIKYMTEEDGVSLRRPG

The other results are listed elsewhere or left out.

Compound in one assay: CN1C2=C(C3=C1C(=O)N(N=C3)CC4=CC(=CC=C4)N)SC(=C2)S(=O)C
The experiment in a line: log2 fold change, soluble protein after heating vs DMSO (PISA); higher = thermal stabilisation; K562 cells, 10 uM, 30 min; active = over 0.2 and 3.5 SD of the protein, either way, in both replicates (recomputed). In short, it runs like this:
(§1)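 For each measurement, 10 μM compound was applied for 30 min to K562 cells at 2×10^6 cells/mL. Aliquots were heated for 3 min across 48°C-58°C, pooled, and extracted in PBS with 0.5% NP-40 at 4°C; the supernatant after 21,000xg for 90 min was soluble protein. This was quantified by TMTpro 16plex LC-MS/MS with channel sums equalised, and thermal stability was reported relative to control samples from duplicates, on a log2 fold-change scale.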
Consider EML5 isoform 5 (UniProt Q05BV3), for which the log2 fold change is inactive: 0.017.
On the same count and under the same terms, for ENO3 (UniProt K7EKN2) the value was inactive: -0.341.
The same measure, in the same setting: as for EIF5A2 (UniProt Q9GZV4), the figure is inactive: 0.125.
The same measure, in the same setting: as for EIF2AK3 (UniProt Q9NZJ5), the figure is inactive: 0.14.
As for EPB41, A0A2R8Y783, the log2 fold change was inactive: -0.004.
Same read-out and setting: for EIF4G1 (UniProt Q04637) the value was inactive: 0.224; for EIF3I (UniProt Q5TFK1), inactive: 0.094.
Same read-out and setting: for EPB41L1 (UniProt Q9H4G0) the value was inactive: 0.032.
With EP400P1 isoform 6 (UniProt Q6ZTU2), the log2 fold change is inactive: 0.044.
The same measure, in the same setting: for ELMO2 (UniProt Q96JJ3) the value was inactive: 0.088.
With ELOVL7 (UniProt A1L3X0), the log2 fold change is inactive: 0.047.
Turning to ENTR1 (UniProt Q96C92), the log2 fold change is inactive: 0.183.
For the target EIF2B4 (UniProt Q9UI10), the log2 fold change is inactive: -0.284.

Compound in another assay: CN1CCC(CNc2ccc3ncc(-c4cccc(OC(F)(F)F)c4)n3n2)CC1
Described as above. In short, it runs like this:
as §1
In the case of EP400 (UniProt Q96L91), the log2 fold change is inactive: 0.017.
As for ENKD1 (UniProt Q9H0I2), the log2 fold change was inactive: -0.07.
The same measure, in the same setting: for ENAH (UniProt Q8N8S7) the value was inactive: -0.136; for EHBP1 (UniProt Q8NDI1), inactive: 0.015.
Still for that read-out and setting: as for ELAVL4 (UniProt P26378), the figure is inactive: 0.041; as for EIF4B (UniProt F8VP89), inactive: -0.212.
Regarding EIF2AK3 (UniProt Q9NZJ5), the log2 fold change was inactive: -0.017.
Still for that read-out and setting: as for EIF4G1 (UniProt Q04637), the figure is active: -0.552; as for ELOA (UniProt Q14241), inactive: -0.012.
The same measure, in the same setting: as for EPB41L1 (UniProt Q9H4G0), the figure is inactive: -0.146; as for EPB41 isoform 4 (UniProt P11171), inactive: -0.062.
For the target EIF2B4 (UniProt Q9UI10), the log2 fold change was inactive: 0.043.
On the same count and under the same terms, as for ELK1 (UniProt P19419), the figure is inactive: -0.053.
On the same count and under the same terms, as for EFCAB2 (UniProt Q5VUJ9), the figure is inactive: 0.037; as for EEF2K (UniProt O00418), inactive: -0.188; as for EIF4H isoform 2 (UniProt Q15056), inactive: -0.104.
